The results in this text go back to PMC3197629.

This series concerns GST-NFATc1. In words: EMSA. Conditions: eliminated by 50-fold unlabeled probe, LightShift Chemiluminescent EMSA kit per manufacturer, 0.5% BSA with desalted GST-NFAT, pH and temperature not stated, recombinant protein, protein details: GST, label: 3' biotin on both strands. (Mobility shift assays separate free from complexed probe on a gel.)

For at least one entry, the source does not settle the construct or the ends of the probe. A weaker result is weaker than the reference pair of the same experiment.

With “CATTTTCCTTCAGAAGAAGAGATTCTTCTA (double strand) [IL-17 197A probe]”, the binding result (stronger band than 197G (densitometry, P<0.01)) is on record as “binds”. Turning to “CATTTTCCTTCAGAAGGAGAGATTCTTCTA (double strand) [IL-17 197G probe]”, the binding result (less intense band than 197A (densitometry, P<0.01)) is given as “binds more weakly”.
